Values of other authors, collected in US6509319B1, “EDTA and other chelators with or without antifungal antimicrobial agents for the prevention and treatment of fungal infections” (Board of Regents, The University of Texas System, priority 1997, dated 2003).
For at least one compound, name, drawing or mass did not settle the structure.

Conditions: surface of a venous catheter; in combination with a chelator, for example EDTA, and other compounds; cited from earlier work

SMILES: CN(C)c1ccc(O)c2c1C[C@H]1C[C@H]3[C@H](N(C)C)C(O)=C(C(N)=O)C(=O)[C@@]3(O)C(O)=C1C2=O [minocycline]
- fungistatic or fungicidal effect: fungistatic or fuingicidal effect
